{"source": "PubChem BioAssay AID504744 – Drosophila RNAi Screening Center | 2011", "screen": "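Find genes whose loss alters insulin-driven dAkt phosphorylation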 (primary screen)", "cell system": "Drosophila Kc167 cells", "reagent": "long dsRNA against Drosophila genes, 250 ng dsRNA per well of a 384-well plate", "timing": "3 days of knock-down, then overnight serum-free starvation before stimulation", "conditions": "bovine insulin at 387 nM for 10 minutes after 12 h without serum", "detection": "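In-cell antibody fluorescence for phospho-dAkt in each well over DNA-dye signal, with log2 residuals expressed as z-scores adjusted for cell count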", "call rule": "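Under insulin, a gene counts as a hit if the average z-score of two replicates lies above 2.5 or below -2.5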", "note": "The deposit covers about 23,000 reagents; below is a random part of those that have a named target and a result. In the full data, 98 (0.43%) are marked active. 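Only hit calls are given; the phospho-dAkt signals, z-scores and hit direction were not deposited.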 Reagents against one gene are numbered here. Names joined by + are all predicted targets of the reagent."}
{"Gene":"Cdk1 (Cyclin-dependent kinase 1)","dsRNA no.":1,"call":"inactive"}
{"Gene":"geminin","dsRNA no.":1,"call":"inactive"}
{"Gene":"CG8539","dsRNA no.":1,"call":"inactive"}
{"Gene":"CG8539","dsRNA no.":2,"call":"inactive"}
{"Gene":"cpa (capping protein alpha)","dsRNA no.":1,"call":"inactive"}
{"Gene":"Cep97 (Centrosomal protein 97kDa)","dsRNA no.":1,"call":"inactive"}
{"Gene":"CG3651","dsRNA no.":1,"call":"inactive"}
{"Gene":"TpnC41C (Troponin C at 41C)","dsRNA no.":1,"call":"inactive"}
{"Gene":"Pos (Poseidon)","dsRNA no.":1,"call":"inactive"}
{"Gene":"Su(var)3-3 (Suppressor of variegation 3-3)","dsRNA no.":1,"call":"inactive"}
{"Gene":"twy (twitchy)","dsRNA no.":1,"call":"inactive"}
{"Gene":"Cdk5alpha (Cdk5 activator-like protein)","dsRNA no.":1,"call":"inactive"}
{"Gene":"Vps39 (Vacuolar protein sorting 39)","dsRNA no.":1,"call":"inactive"}
{"Gene":"Rab8","dsRNA no.":1,"call":"inactive"}
{"Gene":"CG34235 + CG30058 + CG34312","dsRNA no.":1,"call":"inactive"}
{"Gene":"TwdlK (TweedleK)","dsRNA no.":1,"call":"inactive"}
{"Gene":"CG10761","dsRNA no.":1,"call":"inactive"}
{"Gene":"Rpt3R (Regulatory particle triple-A ATPase 3-related)","dsRNA no.":1,"call":"inactive"}
{"Gene":"CG7536","dsRNA no.":1,"call":"inactive"}
{"Gene":"CG4646","dsRNA no.":1,"call":"inactive"}
{"Gene":"pirk (poor Imd response upon knock-in)","dsRNA no.":1,"call":"inactive"}
{"Gene":"Osi3 (Osiris 3)","dsRNA no.":1,"call":"inactive"}
{"Gene":"CG3631","dsRNA no.":1,"call":"inactive"}
{"Gene":"CG4269","dsRNA no.":1,"call":"inactive"}
{"Gene":"Pc (Polycomb)","dsRNA no.":1,"call":"inactive"}
{"Gene":"CG9449","dsRNA no.":1,"call":"inactive"}
{"Gene":"CG31560","dsRNA no.":1,"call":"inactive"}
{"Gene":"CG31288","dsRNA no.":1,"call":"inactive"}
{"Gene":"CG7430","dsRNA no.":1,"call":"inactive"}
{"Gene":"IntS12 (Integrator 12)","dsRNA no.":1,"call":"inactive"}
{"Gene":"Dlip2 (Dorsal interacting protein 2)","dsRNA no.":1,"call":"inactive"}
{"Gene":"CG10853","dsRNA no.":1,"call":"inactive"}
{"Gene":"GABPI (beta4GalNAcTB pilot)","dsRNA no.":1,"call":"inactive"}
{"Gene":"BORCS6 (BLOC-1 related complex subunit 6)","dsRNA no.":1,"call":"inactive"}
{"Gene":"coil (coilin)","dsRNA no.":1,"call":"inactive"}
{"Gene":"CG15141","dsRNA no.":1,"call":"inactive"}
{"Gene":"CG15141","dsRNA no.":2,"call":"inactive"}
{"Gene":"Fer3 (48 related 3)","dsRNA no.":1,"call":"inactive"}
{"Gene":"CG18563","dsRNA no.":1,"call":"inactive"}
{"Gene":"CG15909","dsRNA no.":1,"call":"inactive"}
{"Gene":"CG5697","dsRNA no.":1,"call":"inactive"}
{"Gene":"HLH3B (Helix loop helix protein 3B)","dsRNA no.":1,"call":"inactive"}
{"Gene":"CG13858 (retired record)","dsRNA no.":1,"call":"inactive"}
{"Gene":"CG13858 (retired record)","dsRNA no.":2,"call":"inactive"}
{"Gene":"CG13858 (retired record)","dsRNA no.":3,"call":"inactive"}
{"Gene":"CG13858 (retired record)","dsRNA no.":4,"call":"inactive"}
{"Gene":"CG5897","dsRNA no.":1,"call":"inactive"}
{"Gene":"CG14109","dsRNA no.":1,"call":"inactive"}
{"Gene":"GNBP1 (Gram-negative bacteria binding protein 1)","dsRNA no.":1,"call":"inactive"}
{"Gene":"GNBP1 (Gram-negative bacteria binding protein 1)","dsRNA no.":2,"call":"inactive"}
{"Gene":"wdn (wings down)","dsRNA no.":1,"call":"inactive"}
{"Gene":"Drice (Death related ICE-like caspase)","dsRNA no.":1,"call":"inactive"}
{"Gene":"CG33271","dsRNA no.":1,"call":"inactive"}
{"Gene":"Jhbp14 (Juvenile hormone binding protein 14)","dsRNA no.":1,"call":"inactive"}
{"Gene":"CG40282 (retired record)","dsRNA no.":1,"call":"inactive"}
{"Gene":"Coprox (Coproporphyrinogen oxidase)","dsRNA no.":1,"call":"inactive"}
{"Gene":"CG13101","dsRNA no.":1,"call":"inactive"}
{"Gene":"spdi (split discs)","dsRNA no.":1,"call":"inactive"}
{"Gene":"spdi (split discs)","dsRNA no.":2,"call":"inactive"}
{"Gene":"Axs (Abnormal X segregation)","dsRNA no.":1,"call":"inactive"}
{"Gene":"Vps28 (Vacuolar protein sorting 28)","dsRNA no.":1,"call":"inactive"}
{"Gene":"CG16888","dsRNA no.":1,"call":"inactive"}
{"Gene":"CG8300","dsRNA no.":1,"call":"inactive"}
{"Gene":"CG33217","dsRNA no.":1,"call":"inactive"}
{"Gene":"stmA (stambha A)","dsRNA no.":1,"call":"inactive"}
{"Gene":"stmA (stambha A)","dsRNA no.":2,"call":"inactive"}
{"Gene":"stmA (stambha A)","dsRNA no.":3,"call":"inactive"}
{"Gene":"CG34320 (retired record)","dsRNA no.":1,"call":"inactive"}
{"Gene":"CCT6 (Chaperonin containing TCP1 subunit 6)","dsRNA no.":1,"call":"inactive"}
{"Gene":"CG14913","dsRNA no.":1,"call":"inactive"}
{"Gene":"CG34315 + Orc3","dsRNA no.":1,"call":"inactive"}
{"Gene":"CG4998","dsRNA no.":1,"call":"inactive"}
{"Gene":"CG4998","dsRNA no.":2,"call":"inactive"}

A run of entries from the list above, for reference:
{"Gene":"Pc (Polycomb)","dsRNA no.":1,"call":"inactive"}
{"Gene":"CG9449","dsRNA no.":1,"call":"inactive"}
{"Gene":"CG31560","dsRNA no.":1,"call":"inactive"}
{"Gene":"CG31288","dsRNA no.":1,"call":"inactive"}
{"Gene":"CG7430","dsRNA no.":1,"call":"inactive"}
{"Gene":"IntS12 (Integrator 12)","dsRNA no.":1,"call":"inactive"}
